The results in this text go back to patent US20160368974A1 (UMC UTRECHT HOLDING B V, published 2016).

These are yes or no findings as the source states them, for the method shown. Some entries that bind do so weakly or less than the wild type. Ends that are not written are not given here.

The test addresses immunizing peptide … (SEQ ID NO: 27). The experiment in a line: PEPSCAN ELISA on overlapping 7 to 14-mer linear and CLIPS peptides based on SEQ ID NO:27. For orientation: An ELISA detects its analyte on a solid surface through an enzyme-linked reagent.

B1: antibody 33E3.10 (antibody, V domains shown)
VH: EVKLVESGGGLVKPGGSLKLSCAASGFTFSNSAMTWVRQTPEKRLEWVASISGGGTTYYPDSVKGRFTISRDNARNILYLQMSSLRSEDTAIYYCARSHYWGQGTTLTVSS
VL: DIVMTQSQKFMSTSIGDRVSVTCKASQNVVTNVAWYQQKPGQSPKALIYSASYRYSGVPDRFTGSGSGTDFTLTISNVQSEDLAEYFCQQYNSYPYTFGGGTKLEIKR
In the case of B1, the binding entry was “binds”.

B2: antibody 17G8.72 (antibody, V domains shown)
VH: DVQLQESGPDLVKPSQSLSLTCTVTGYSIASGYSWHWIRQFPGNKLEWMGYIHFSGSANYNPSLKSRISITRDTSKNQFFLQLNSVTTEDTATYYCASEARGYFDYWGQGTTLTVSS
VL: DVLMTQTPLSLPVSLGDQASISCRSSQSIVRSNGNTYLTWYLQKPGQSPKLLIYKVSNRFSGVPDRFSGSGSGTDFTLKISRVEAEDLGVYFCFQGSHVPPTFGSGTKLEIKR
notes: Monoclonal antibody against the EDA domain of fibronectin-EDA; also called 17G8.7VL
Turning to B2, the binding entry is on record as “binds”.
